System: urinary bladder
Test: Potentiation effect for rhythmic contraction of urinary bladder in guinea pig, Experimental Example 2
Assay type: in vivo, Hartley male guinea pigs
Details: Cavia porcellus, iv, read-out: AUC200 (mg/kg, i.v.)
Description: Potentiation effect of the compounds disclosed in Reference Examples for rhythmic contraction of urinary bladder was examined using Hartley male guinea pigs. Hartley male guinea pigs (SLC) weighing about 300 g were anesthetized with urethane (1.2 g/kg, i.p.), held, and incised at the midline of abdomen to expose the bladder. The urethra was ligated, and a polyethylene tube (PE-50) was inserted into the bladder. The internal pressure of the bladder was measured with a blood pressure amplifier (Nippon Koden), and the data was collected on a personal computer through an A/D converter (MP-30, Biopac Systems). A proper amount of physiological saline was injected into the bladder through a cannula to induce rhythmic contraction of the to bladder. […]
The area (AUC) that is formed by a curve of the internal pressure of the bladder and a base line was calculated through analytical software (Studentlab pro 2.1.5, Biopac Systems) to evaluate the effect of the test compounds. […] From the dose-dependent curve of AUC, the dose at which AUC before drug administration was increased 2 times (AUC200) was calculated to determine potency of contraction-enhancing effect of the test compounds for the muscle of urinary bladder. In addition, the potency of contraction-enhancing effect of […] for the muscle of bladder was determined in the same manner as mentioned above.

Q: How did the ED (2-fold bladder contraction AUC) turn out when `COc1cc2c(cc1OC)C(=O)C(CC1CCN(Cc3ccccc3)CC1)C2` (stereo not shown) [compound 29] was run?
A: 0.16 mg/kg
